In the supplement of paper PMC12024529:
Counter-ions that a name gives are not always drawn. Some of the results follow. Plates or batches differ in their baseline, so values are only roughly comparable.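 Wild-type or misfolding-prone missense mutant B-domain-deleted factor VIII, fused to Gaussia luciferase, is stably expressed in HEK293 lines. Each score is (mean triplicate-well luminescence minus DMSO mean) divided by DMSO standard deviation. Hits score at least 2; lower scores could stem from decreased secretion or poorer cell viability.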

Key:
HEK293 WT BDD-FVIII-Gluc = assay: secreted FVIII-Gluc luciferase Z-score vs DMSO control; higher = more FVIII-Gluc secretion; conditions: 5 µM; 24 h
[1] = tested on: HEK293 p.N1941S BDD-FVIII-Gluc; assay: as above; conditions: 5 µM; 24 h

Row | Structure (SMILES) | secreted FVIII-Gluc luciferase Z-score (HEK293 WT BDD-FVIII-Gluc) | secreted FVIII-Gluc luciferase Z-score [1]
1 | O=C1NCC2(CCN(CCc3ccccc3)CC2)O1 [Fenspiride HCl] | active: 8.29 | active: 5.23
2 | O=C(O)c1cccnc1 [Niacin (Nicotinic acid)] | inactive: 0.208 | inactive: -0.028
3 | CC(S)C(=O)NCC(=O)O (centres undefined) [Tiopronin (Thiola)] | inactive: -0.256 | inactive: -0.15
4 | C#C[C@]1(O)CC[C@H]2[C@@H]3CCc4cc(O)ccc4[C@H]3CC[C@@]21C [Ethinyl Estradiol] | inactive: -0.724 | inactive: -3.77
5 | C[N+](C)(CCOc1ccccc1)Cc1ccccc1.O=C([O-])c1cc2ccccc2cc1O [Bephenium Hydroxynaphthoate] | inactive: -0.666 | inactive: 1.35
6 | CCCN1CCCC[C@H]1C(=O)Nc1c(C)cccc1C [Ropivacaine HCl] | inactive: -0.769 | inactive: 0.681
7 | O=c1c(-c2ccc(O)cc2)coc2cc(O)ccc12 [Daidzein] | inactive: -6.06 | inactive: -0.554
8 | C/C(=C\C(=O)OCCCCCCCCC(=O)O)C[C@@H]1OC[C@H](C[C@@H]2O[C@H]2[C@@H](C)[C@H](C)O)[C@@H](O)[C@H]1O [Mupirocin] | inactive: 0.658 | inactive: 1.77
9 | CC[C@@H](CO)NCCN[C@@H](CC)CO [Ethambutol HCl] | inactive: 0.0775 | inactive: -0.332
10 | O=C([O-])C(O)[C@H](O)[C@@H](O)[C@H](O)[C@H](O)CO.O=C([O-])C(O)[C@H](O)[C@@H](O)[C@H](O)[C@H](O)CO.[Ca+2] (some centres undefined) [Calcium Gluceptate] | inactive: 0.184 | inactive: 1.18
11 | Cc1c(-c2ccccc2)oc2c(C(=O)OCCN3CCCCC3)cccc2c1=O [Flavoxate HCl] | inactive: -1.04 | inactive: 0.28
12 | CC(C)n1c(/C=C/C(O)CC(O)CC(=O)O)c(-c2ccc(F)cc2)c2ccccc21 (centres undefined) [Fluvastatin sodium (Lescol)] | inactive: -3.08 | inactive: -4.48
13 | Cc1cccc(C)c1OCC(=O)N[C@@H](Cc1ccccc1)[C@@H](O)C[C@H](Cc1ccccc1)NC(=O)[C@H](C(C)C)N1CCCNC1=O [Lopinavir (ABT-378)] | inactive: -5.16 | inactive: -1.79
14 | C[C@@H](c1ncncc1F)[C@](O)(Cn1cncn1)c1ccc(F)cc1F [Voriconazole] | inactive: -1.95 | inactive: -0.18
15 | CN1CCN2c3ncccc3Cc3ccccc3C2C1 (centres undefined) [Mirtazapine (Remeron, Avanza)] | inactive: 1.12 | inactive: 1.6
16 | N=C(N)NC(=O)c1nc(Cl)c(N)nc1N [Amiloride hydrochloride dihydrate] | inactive: -0.644 | inactive: -1.65
17 | Nc1ccn([C@@H]2O[C@H](CO)[C@@H](O)[C@H]2O)c(=O)n1 [Cytidine] | inactive: -1.76 | inactive: 0.147
18 | CCCCCCCN(CC)CCCC(O)c1ccc(NS(C)(=O)=O)cc1 (centres undefined) [Ibutilide fumarate] | inactive: 0.0971 | inactive: -0.0269
19 | COc1cc(NS(=O)(=O)c2ccc(N)cc2)nc(OC)n1 [Sulphadimethoxine] | inactive: -2.07 | inactive: -0.0658
20 | CCCN[C@H]1CCc2nc(N)sc2C1 [Pramipexole dihydrochloride monohydrate] | inactive: -0.836 | inactive: -2.01
21 | NCC(=O)CCC(=O)O [5-Aminolevulinic acid hydrochloride] | inactive: 1.04 | inactive: 0.32
22 | CN(C)CCc1c[nH]c2ccc(Cn3cncn3)cc12 [Rizatriptan Benzoate] | inactive: -1.52 | inactive: 0.291
23 | O=c1cc[nH]c(=O)[nH]1 [Uracil] | inactive: 1.39 | inactive: 1.42
24 | O=C1CC[C@@H](C(=O)N2CSC[C@H]2C(=O)O)N1 [Pidotimod] | inactive: 1.29 | inactive: 0.173
25 | CCOC(=O)c1ccc(N)cc1 [Benzocaine] | inactive: -2.2 | inactive: -1.23
26 | COc1ccc2[nH]cc(CCNC(C)=O)c2c1 [Melatonin] | inactive: -0.781 | inactive: 1.07
27 | CC[C@H](C)C(=O)O[C@H]1C[C@@H](C)C=C2C=C[C@H](C)[C@H](CC[C@@H]3C[C@@H](O)CC(=O)O3)[C@H]21 [Lovastatin (Mevacor)] | inactive: 1.04 | inactive: -4.51

Single values from the list.
Entry for `CCCN1CCCC[C@H]1C(=O)Nc1c(C)cccc1C` [Ropivacaine HCl] under secreted FVIII-Gluc luciferase Z-score (HEK293 WT BDD-FVIII-Gluc): inactive: -0.769
Entry for `O=c1c(-c2ccc(O)cc2)coc2cc(O)ccc12` [Daidzein] under secreted FVIII-Gluc luciferase Z-score [1]: inactive: -0.554
